# Results: publication PMC7862700
# The entries are a selection whose mix differs from that of the whole data set. For some assays here: At the low end of the ranking the order means little.
# Target: T1, FLI1 (UniProt Q01543)
# T1 sequence: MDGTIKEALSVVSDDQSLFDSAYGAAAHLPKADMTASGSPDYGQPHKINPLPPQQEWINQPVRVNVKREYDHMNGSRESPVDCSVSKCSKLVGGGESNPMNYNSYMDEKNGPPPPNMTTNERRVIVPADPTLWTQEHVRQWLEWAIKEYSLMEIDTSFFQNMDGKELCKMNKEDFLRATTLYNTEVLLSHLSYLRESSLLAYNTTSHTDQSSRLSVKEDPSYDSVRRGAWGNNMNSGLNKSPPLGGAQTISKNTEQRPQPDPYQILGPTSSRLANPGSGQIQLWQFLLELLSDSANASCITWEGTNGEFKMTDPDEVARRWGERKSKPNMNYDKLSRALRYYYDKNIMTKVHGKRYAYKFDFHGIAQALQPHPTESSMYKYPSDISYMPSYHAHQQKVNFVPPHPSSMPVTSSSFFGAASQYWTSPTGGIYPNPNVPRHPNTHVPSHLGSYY
# Assay: DAPPL (digital affinity profiling via proximity ligation, sequencing)
# Details: 10 mM Tris-HCl pH 7.5, 50 mM NaCl, 1 mM DTT, 4% glycerol, room temperature, 30 min; GST-TFs on glutathione beads, 16-mer random dsDNA library, 0.1% …; high values mean tight binding; double strand, one strand shown; scale: fold enrichment (6-mer frequency, TF over GST control)
row,Sequence,binding signal
1,CACGCG,1.32
2,CTGTAC,1.28
3,TTGGTA,1.23
4,CATACC,1.03
5,ACTGTT,1.15
6,CTGCGG,1.23
7,TGCTTA,1.04
8,ACATAA,1.01
9,TCAAAA,1.12
10,TAACGC,1.12
11,TGTTAC,1.49
12,CTGAAC,1.35
13,TGCAGC,0.986
14,GCTGTT,1.04
15,ACGTTG,1.14
16,ATGTTG,1.31
17,ATAATG,0.984
18,TGGCTC,1.4
19,CGCGCC,0.982
20,ACAATG,1.1

row,Sequence,binding signal
1,CGCTGC,1.12
2,AATAGG,1.15
3,CGTAAA,0.999
4,GCTGCT,1.32
5,TAGTAT,1.25
6,GAAGCG,1.37
7,CCTCCT,1.72
8,ATCCAT,1.22
9,TAGCTG,1.29
10,GACTTT,1.04
11,ATGTTT,1.48
12,CGTTTC,1.76
13,AACCCC,1.08
14,TGTATA,1.08
15,CGATGG,1.36
16,TTGTTA,1.32
17,TTTGAC,1.57
18,CCAACT,1.26
19,TGATGA,1.38
20,ACGATT,1.44

# Target: T2, ETV2 (UniProt O00321)
# T2 sequence: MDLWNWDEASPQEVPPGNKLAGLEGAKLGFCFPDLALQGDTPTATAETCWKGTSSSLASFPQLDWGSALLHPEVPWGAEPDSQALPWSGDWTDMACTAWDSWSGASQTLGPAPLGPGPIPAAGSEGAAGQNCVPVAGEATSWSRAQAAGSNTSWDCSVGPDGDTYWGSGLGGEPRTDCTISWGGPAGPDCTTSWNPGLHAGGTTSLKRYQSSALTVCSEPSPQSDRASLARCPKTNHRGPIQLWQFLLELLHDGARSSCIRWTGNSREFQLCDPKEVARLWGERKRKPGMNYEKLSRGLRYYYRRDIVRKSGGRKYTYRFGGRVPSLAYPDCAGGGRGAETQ
# Assay: as above
# Details: 10 mM Tris-HCl pH 7.5, 50 mM NaCl, 1 mM DTT, 4% glycerol, room temperature, 30 min; GST-TFs on glutathione beads, 16-mer random dsDNA library, 0.1% …; high values mean tight binding; double strand, one strand shown; scale: fold enrichment (6-mer frequency, TF over GST control)
row,Sequence,binding signal
1,CACGCG,1.18
2,CTGTAC,1.39
3,TTGGTA,1
4,CATACC,1.16
5,ACTGTT,1.23
6,CTGCGG,1.25
7,TGCTTA,0.999
8,ACATAA,1.15
9,TCAAAA,1.23
10,TAACGC,1.13
11,TGTTAC,1.58
12,CTGAAC,1.35
13,TGCAGC,1.12
14,GCTGTT,1.1
15,ACGTTG,0.99
16,ATGTTG,0.993
17,ATAATG,0.967
18,TGGCTC,1.61
19,CGCGCC,0.994
20,ACAATG,0.929

row,Sequence,binding signal
1,CGCTGC,0.976
2,AATAGG,0.993
3,CGTAAA,1.21
4,GCTGCT,1.25
5,TAGTAT,1.34
6,GAAGCG,1.19
7,CCTCCT,1.45
8,ATCCAT,1.19
9,TAGCTG,1.15
10,GACTTT,1.1
11,ATGTTT,1.41
12,CGTTTC,1.41
13,AACCCC,1.18
14,TGTATA,1.04
15,CGATGG,1.34
16,TTGTTA,1.35
17,TTTGAC,1.5
18,CCAACT,1.11
19,TGATGA,1.33
20,ACGATT,1.24

# Target: T3, ETV3L (UniProt Q6ZN32)
# T3 sequence: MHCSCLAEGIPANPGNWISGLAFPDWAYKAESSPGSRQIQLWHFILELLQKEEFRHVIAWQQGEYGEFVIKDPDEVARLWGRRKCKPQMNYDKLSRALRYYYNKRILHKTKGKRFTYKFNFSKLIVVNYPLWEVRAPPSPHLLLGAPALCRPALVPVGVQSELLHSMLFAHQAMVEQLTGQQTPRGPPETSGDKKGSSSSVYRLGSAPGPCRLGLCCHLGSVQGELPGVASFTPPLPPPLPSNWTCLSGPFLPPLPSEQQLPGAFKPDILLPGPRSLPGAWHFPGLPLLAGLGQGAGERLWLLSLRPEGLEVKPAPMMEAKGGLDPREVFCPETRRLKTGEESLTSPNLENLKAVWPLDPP
# Assay: as above
# Details: 10 mM Tris-HCl pH 7.5, 50 mM NaCl, 1 mM DTT, 4% glycerol, room temperature, 30 min; GST-TFs on glutathione beads, 16-mer random dsDNA library, 0.1% …; high values mean tight binding; double strand, one strand shown; scale: fold enrichment (6-mer frequency, TF over GST control)
row,Sequence,binding signal
1,ACATAA,1.1
2,AATAGG,1.12
3,ATCCAT,1.11
